According to patent US20230075925A1, “NON-PERIPHERAL QUATERNARY AMMONIUM-MODIFIED ZINC PHTHALOCYANINE AND PREPARATION METHOD AND USE THEREOF” (FUZHOU UNIVERSITY, priority 2020, published 2023):
Some entries share one result that the patent states for a list of compounds. At least one structure is not confirmed: it was looked up by name or label, or the drawing left a doubt.

Tested on: melanoma cells B16-F10 tumors (proximal and distal)
Assay: PDT / anti-PD-L1 combination therapy in bilateral B16-F10 tumor-bearing mouse model (tumor inhibition rate)
Format: in vivo
Settings: PDT group (phthalocyanine+illumination), 100 μL of 200 μM, 685 nm 15 mW/cm^2 5 min, 14 days
Procedure: A bilateral tumor-bearing mouse model of melanoma cells B16-F10 (proximal and distal) was established. During PDT, the proximal referred to an illuminated side, and the distal referred to a non-illuminated side. The distribution and metabolism of photosensitizers in the tumor-bearing mouse were investigated by a small animal fluorescence imager and a tissue extraction method, and PDT was conducted under optimal conditions. The following 5 groups of experiments were set up, with 5 mice in each group: a PBS control group; an anti-PD-L1 antibody treatment group; a simple phthalocyanine (no illumination) treatment group; a phthalocyanine+illumination treatment group, namely a PDT group; and a phthalocyanine+illumination+anti-PD-L1 antibody treatment group, namely a combination therapy group. The anti-PD-L1 antibody was purchased from BioX cell.
In the combination therapy group, the PDT group and the simple photosensitizer group, 100 μL of a phthalocyanine compound (at a concentration of 200 μM, diluted with 0.5% CEL) was administered to each mouse. […]
From the first treatment, a body weight and a tumor volume of all mice were measured every other day, and a tumor size was calculated according to a formula: tumor volume=tumor length×width×height×π/6; after 14 consecutive days of observation, a tumor inhibition rate of each experimental group was calculated.

SMILES: C[N+](C)(C)CCc1ccc(Oc2cccc3c4nc5nc(nc6nc(nc7[n-]c(nc([n-]4)c23)c2ccccc72)-c2ccccc2-6)-c2ccccc2-5)cc1.[I-].[Zn+2] [Example 1, 1-[4-(N,N,N-trimethyl-2-aminoethyl)phenoxy] zinc phthalocyanine iodide]
- tumor inhibition rate on distal tumors (unilluminated tumors): less than 2.5%
